Measured values as given in publication PMC12406535.
Results are given in words; binding and its absence hold for the method and conditions named. In cells and extracts the contact can be indirect. Some binding calls cover weakened binding; strength is not graded here. Sequences can lack the tags named with a protein.

By UniProt entry, the sequences of proteins in these tests, tags left out. Residues count along the entry.
UniProt P32248, residues 25-378: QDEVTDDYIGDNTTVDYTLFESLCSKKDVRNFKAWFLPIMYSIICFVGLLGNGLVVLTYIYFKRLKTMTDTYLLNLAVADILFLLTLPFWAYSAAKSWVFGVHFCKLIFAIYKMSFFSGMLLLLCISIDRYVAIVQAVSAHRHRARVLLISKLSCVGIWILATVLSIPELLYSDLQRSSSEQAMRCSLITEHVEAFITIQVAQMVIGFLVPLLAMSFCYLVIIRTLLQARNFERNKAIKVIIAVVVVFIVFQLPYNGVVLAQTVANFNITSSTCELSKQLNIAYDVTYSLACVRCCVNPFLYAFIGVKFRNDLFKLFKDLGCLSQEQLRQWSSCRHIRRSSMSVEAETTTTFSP

Molecular target: T1, HA-tagged CXCL14 (human) (UniProt O95715)
T1 sequence: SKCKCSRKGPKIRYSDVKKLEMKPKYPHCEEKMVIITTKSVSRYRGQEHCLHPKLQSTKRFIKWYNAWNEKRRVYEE
Assay: co-IP; T24 cell lysate in IP lysis buffer; anti-HA beads, or antibody overnight at 4 °C followed by Protein A/G beads for 4-6 h; three washes with cold lysis buffer; IgG as negative control; Western blot

- binding: binds
Substance: CCR7 (from UniProt P32248 25-378) (receptor)
